# Results as given in article PMC12462914.
# Results are given in words; binding and its absence hold for the method and conditions named. Binding seen in cells or lysates may run through a third protein.
# B1: SLC7A11, Q9UPY5 1-501 (protein)
# chain: MVRKPVVSTISKGGYLQGNVNGRLPSLGNKEPPGQEKVQLKRKVTLLRGVSIIIGTIIGAGIFISPKGVLQNTGSVGMSLTIWTVCGVLSLFGALSYAELGTTIKKSGGHYTYILEVFGPLPAFVRVWVELLIIRPAATAVISLAFGRYILEPFFIQCEIPELAIKLITAVGITVVMVLNSMSVSWSARIQIFLTFCKLTAILIIIVPGVMQLIKGQTQNFKDAFSGRDSSITRLPLAFYYGMYAYAGWFYLNFVTEEVENPEKTIPLAICISMAIVTIGYVLTNVAYFTTINAEELLLSNAVAVTFSERLLGNFSLAVPIFVALSCFGSMNGGVFAVSRLFYVASREGHLPEILSMIHVRKHTPLPAVIVLHPLTMIMLFSGDLDSLLNFLSFARWLFIGLAVAGLIYLRYKCPDMHRPFKVPLFIPALFSFTCLFMVALSLYSDPFSTGIGFVITLTGVPAYYLFIIWDKKPRWFRIMSEKITRTLQIILEVVPEEDKL
# Target: USP10 (human), Q14694
# Test: co-IP; immunoprecipitation of Figure S6C; cells, bait and antibodies not given; lysates in IP lysis buffer, overnight at 4 °C
# Conditions: remark: other sources report otherwise
binder,measurement,value
B1,binding,no binding
